Literature values as cited in patent US10336768B2, “Pyrimidine compounds and methods using the same” (Yuma Therapeutics, Inc., priority 2014, dated 2019).
At least one compound was matched to its structure with a doubt left.

Test system: influenza virus
Settings: cell culture; cited from earlier work

## COC1=C2C[C@@H](C)C[C@H](OC)[C@H](O)[C@@H](C)/C=C(\C)[C@H](OC(N)=O)[C@@H](OC)/C=C\C=C(/C)C(=O)NC(=CC1=O)C2=O [geldanamycin]
  growth of influenza virus: delay the growth of influenza virus
